Measured values: patent US20150232576A1
No constants are given. Whether binding was seen depends on the method and setting. Some binding calls cover weakened binding; strength is not graded here.

The chains behind the UniProt entries cited, without tags or fusion partners.
UniProt P28482: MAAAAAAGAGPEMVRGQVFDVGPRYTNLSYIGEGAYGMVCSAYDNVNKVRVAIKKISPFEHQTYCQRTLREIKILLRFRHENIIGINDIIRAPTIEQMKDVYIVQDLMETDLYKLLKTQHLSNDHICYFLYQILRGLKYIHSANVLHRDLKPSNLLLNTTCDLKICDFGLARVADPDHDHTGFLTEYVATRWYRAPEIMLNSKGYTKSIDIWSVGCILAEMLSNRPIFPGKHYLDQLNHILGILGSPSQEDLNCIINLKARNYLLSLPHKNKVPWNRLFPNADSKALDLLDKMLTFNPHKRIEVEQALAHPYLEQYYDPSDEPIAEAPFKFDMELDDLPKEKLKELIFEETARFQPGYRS
UniProt P29473: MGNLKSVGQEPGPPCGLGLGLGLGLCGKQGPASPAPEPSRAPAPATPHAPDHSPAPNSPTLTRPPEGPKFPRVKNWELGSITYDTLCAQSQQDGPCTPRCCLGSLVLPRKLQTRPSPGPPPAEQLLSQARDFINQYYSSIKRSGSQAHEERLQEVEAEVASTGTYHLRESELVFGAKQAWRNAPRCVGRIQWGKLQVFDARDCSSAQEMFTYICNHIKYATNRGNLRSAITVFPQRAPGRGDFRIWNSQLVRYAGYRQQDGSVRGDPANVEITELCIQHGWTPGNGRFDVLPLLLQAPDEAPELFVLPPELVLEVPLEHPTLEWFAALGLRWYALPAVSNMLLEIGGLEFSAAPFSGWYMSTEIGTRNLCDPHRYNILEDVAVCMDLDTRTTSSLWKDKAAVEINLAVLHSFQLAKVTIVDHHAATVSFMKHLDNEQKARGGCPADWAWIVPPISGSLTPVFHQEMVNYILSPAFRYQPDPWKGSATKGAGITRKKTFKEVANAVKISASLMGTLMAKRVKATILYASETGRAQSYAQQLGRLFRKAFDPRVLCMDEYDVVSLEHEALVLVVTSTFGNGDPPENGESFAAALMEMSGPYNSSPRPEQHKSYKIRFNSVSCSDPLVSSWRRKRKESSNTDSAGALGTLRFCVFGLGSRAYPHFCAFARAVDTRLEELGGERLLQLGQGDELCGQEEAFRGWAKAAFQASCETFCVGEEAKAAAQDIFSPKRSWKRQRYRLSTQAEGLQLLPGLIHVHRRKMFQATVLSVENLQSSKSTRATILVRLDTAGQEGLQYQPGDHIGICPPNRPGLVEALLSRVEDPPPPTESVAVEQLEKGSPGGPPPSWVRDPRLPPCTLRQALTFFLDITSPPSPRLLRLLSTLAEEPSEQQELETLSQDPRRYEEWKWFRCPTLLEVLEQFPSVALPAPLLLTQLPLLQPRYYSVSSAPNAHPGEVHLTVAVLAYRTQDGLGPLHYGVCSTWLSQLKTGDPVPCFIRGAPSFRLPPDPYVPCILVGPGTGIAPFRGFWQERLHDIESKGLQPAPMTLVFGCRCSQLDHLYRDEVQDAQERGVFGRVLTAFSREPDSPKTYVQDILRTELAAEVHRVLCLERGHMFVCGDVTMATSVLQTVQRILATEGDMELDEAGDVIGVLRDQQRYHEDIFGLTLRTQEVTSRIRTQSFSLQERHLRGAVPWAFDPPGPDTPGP

Key:
[1] = biological target: ERK-2 (extracellular signal-regulated kinase 2) (UniProt P28482); experiment: BLI
[2] = biological target: ERK-2 (extracellular signal-regulated kinase 2) (UniProt P28482); experiment: BLI, immobilised ERK-2, eNOS analyte
[3] = biological target: ERK-2 (extracellular signal-regulated kinase 2) (UniProt P28482); experiment: optical biosensing (BLI), summary statement
[4] = biological target: ERK-2 (extracellular signal-regulated kinase 2) (UniProt P28482); experiment: BLI, biotinylated ERK-2 on streptavidin sensors, 200 nM eNOS analyte

binding [1]: binds
binding [2]: binds
binding [3]: binds
binding [4]: binds
Substance: endothelial nitric oxide synthase (eNOS), purified, unphosphorylated (from UniProt P29473 1-1205) (enzyme)
